Results taken from doi:10.1101/533091.
Results are given in words; binding and its absence hold for the method and conditions named. Binding calls can cover weak binding; strength is not graded here. Tags and fused reporters may be left off the sequences shown. Binding seen in cells or lysates may run through a third protein.

T1: FLAG-tagged Arx (Drosophila) (UniProt Q8SWX0)
T1 sequence: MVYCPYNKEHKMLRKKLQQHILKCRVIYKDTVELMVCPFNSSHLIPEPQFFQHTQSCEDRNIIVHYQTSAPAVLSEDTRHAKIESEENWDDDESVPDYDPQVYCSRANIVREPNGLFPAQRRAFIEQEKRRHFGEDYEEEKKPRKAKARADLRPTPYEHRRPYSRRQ

T2: GST-SUMO (wild type) (Drosophila) (UniProt O97102)
T2 sequence: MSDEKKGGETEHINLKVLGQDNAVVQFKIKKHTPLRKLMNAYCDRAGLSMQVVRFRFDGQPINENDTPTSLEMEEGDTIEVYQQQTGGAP

T3: GFP-Arx (Drosophila) (UniProt Q8SWX0)
T3 sequence: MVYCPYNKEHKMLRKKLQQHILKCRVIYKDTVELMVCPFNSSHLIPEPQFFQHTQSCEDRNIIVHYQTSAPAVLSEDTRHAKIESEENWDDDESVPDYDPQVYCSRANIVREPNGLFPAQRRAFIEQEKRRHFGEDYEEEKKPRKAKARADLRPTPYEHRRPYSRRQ

T4: GFP-Piwi (Drosophila) (UniProt Q9VKM1)
T4 sequence: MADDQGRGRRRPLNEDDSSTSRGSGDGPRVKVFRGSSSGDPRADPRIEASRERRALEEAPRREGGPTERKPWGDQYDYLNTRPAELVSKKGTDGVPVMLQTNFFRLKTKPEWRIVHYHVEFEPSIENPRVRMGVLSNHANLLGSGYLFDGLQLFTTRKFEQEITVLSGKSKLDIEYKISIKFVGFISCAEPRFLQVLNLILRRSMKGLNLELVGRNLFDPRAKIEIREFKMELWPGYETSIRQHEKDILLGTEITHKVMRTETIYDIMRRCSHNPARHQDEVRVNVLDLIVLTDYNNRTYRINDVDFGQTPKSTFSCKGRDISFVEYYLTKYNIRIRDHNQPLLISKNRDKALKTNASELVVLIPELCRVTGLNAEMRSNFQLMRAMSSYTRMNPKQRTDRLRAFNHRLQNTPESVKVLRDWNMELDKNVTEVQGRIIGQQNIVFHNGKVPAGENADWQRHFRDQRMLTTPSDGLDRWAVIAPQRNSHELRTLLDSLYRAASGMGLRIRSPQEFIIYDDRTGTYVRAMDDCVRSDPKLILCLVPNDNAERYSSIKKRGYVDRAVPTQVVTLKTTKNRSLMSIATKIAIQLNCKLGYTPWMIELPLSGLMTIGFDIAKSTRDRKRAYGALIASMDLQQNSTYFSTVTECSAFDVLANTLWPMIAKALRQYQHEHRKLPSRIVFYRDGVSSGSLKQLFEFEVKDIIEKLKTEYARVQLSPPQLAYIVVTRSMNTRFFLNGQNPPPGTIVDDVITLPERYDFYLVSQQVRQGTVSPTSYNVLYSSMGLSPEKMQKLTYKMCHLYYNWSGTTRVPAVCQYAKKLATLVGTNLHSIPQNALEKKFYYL


Assays:
[1] = molecular target: T1, FLAG-tagged Arx (Drosophila); test: co-IP
[2] = molecular target: T2, GST-SUMO (wild type) (Drosophila); test: pull-down
[3] = molecular target: T3, GFP-Arx (Drosophila); test: co-IP
[4] = molecular target: T4, GFP-Piwi (Drosophila); test: co-IP
[5] = molecular target: GFP-Su(var)2-10 (D. melanogaster); test: co-IP
[6] = molecular target: GFP-tagged truncated Wde including predicted SIM-s 3 to 6 (aa385-655) (Drosophila); test: pull-down
[7] = molecular target: GFP-tagged truncated Wde including SIM 7 (aa1058-1310) (Drosophila); test: pull-down

binding [6] | binding [7] | Molecule | binding [2] | other results
– | – | GFP-Su(var)2-10 (D. melanogaster) | binds | binding [1]: binds
– | – | His-Su(var)2-10 (D. melanogaster) | binds | –
– | – | FLAG-Su(var)2-10 (D. melanogaster) | – | binding [3]: binds; binding [4]: binds
– | – | FLAG-tagged Piwi (protein, UniProt Q9VKM1 1-843) MADDQGRGRRRPLNEDDSSTSRGSGDGPRVKVFRGSSSGDPRADPRIEASRERRALEEAPRREGGPTERKPWGDQYDYLNTRPAELVSKKGTDGVPVMLQTNFFRLKTKPEWRIVHYHVEFEPSIENPRVRMGVLSNHANLLGSGYLFDGLQLFTTRKFEQEITVLSGKSKLDIEYKISIKFVGFISCAEPRFLQVLNLILRRSMKGLNLELVGRNLFDPRAKIEIREFKMELWPGYETSIRQHEKDILLGTEITHKVMRTETIYDIMRRCSHNPARHQDEVRVNVLDLIVLTDYNNRTYRINDVDFGQTPKSTFSCKGRDISFVEYYLTKYNIRIRDHNQPLLISKNRDKALKTNASELVVLIPELCRVTGLNAEMRSNFQLMRAMSSYTRMNPKQRTDRLRAFNHRLQNTPESVKVLRDWNMELDKNVTEVQGRIIGQQNIVFHNGKVPAGENADWQRHFRDQRMLTTPSDGLDRWAVIAPQRNSHELRTLLDSLYRAASGMGLRIRSPQEFIIYDDRTGTYVRAMDDCVRSDPKLILCLVPNDNAERYSSIKKRGYVDRAVPTQVVTLKTTKNRSLMSIATKIAIQLNCKLGYTPWMIELPLSGLMTIGFDIAKSTRDRKRAYGALIASMDLQQNSTYFSTVTECSAFDVLANTLWPMIAKALRQYQHEHRKLPSRIVFYRDGVSSGSLKQLFEFEVKDIIEKLKTEYARVQLSPPQLAYIVVTRSMNTRFFLNGQNPPPGTIVDDVITLPERYDFYLVSQQVRQGTVSPTSYNVLYSSMGLSPEKMQKLTYKMCHLYYNWSGTTRVPAVCQYAKKLATLVGTNLHSIPQNALEKKFYYL | – | binding [5]: binds
binds | binds | GST-SUMO (wild type) (protein, UniProt O97102 1-90) MSDEKKGGETEHINLKVLGQDNAVVQFKIKKHTPLRKLMNAYCDRAGLSMQVVRFRFDGQPINENDTPTSLEMEEGDTIEVYQQQTGGAP | – | –
no binding (tested: 2-3 μg GST-SUMO) | no binding (tested: 2-3 μg GST-SUMO) | GST-SUMO (QFI>AAA) (protein, UniProt O97102 1-90) MSDEKKGGETEHINLKVLGQDNAVVAAKAKKHTPLRKLMNAYCDRAGLSMQVVRFRFDGQPINENDTPTSLEMEEGDTIEVYQQQTGGAP | – | –
